# Assay results: PMC12040169 (PLOS Biology, 2025)
# Some of the results follow.
# Tested on: T1, CTL2-GFP (C. trachomatis L2/434/Bu, GFP-expressing)
# T1 construct: L2/434/Bu, GFP-expressing
# Set-up: species or system HeLa; Intracellular C. trachomatis growth in HeLa cells, bulk GFP fluorescence relative to DMSO
# Conditions: bulk GFP, single well; 28.5 h, 10 µM; inhibitor
row,Compound,% of control remaining
1,CCCc1n[nH]c(C2CCCC2)c1C(=O)OCC [CBK115727],103.486%
2,O=C(NCc1ccc(-c2csnn2)cc1)c1ccc(Oc2ccccc2)cc1 [CBK149300],98.8126%
3,Cn1cc(CN2CCCN(C(=O)c3ccc4ccccc4n3)CC2)cn1 [CBK305369],92.9738%
4,CN(/N=C/c1cc(Br)cs1)c1ccc(Cl)nn1 [CBK028729],123.1%
5,O=C(NCc1ccc(OC2CCNCC2)cc1)c1cccs1 [CBK036353T],112.612%
6,Cc1ccc(S(=O)(=O)N(C)CCCC(=O)n2cnc3ccccc32)cc1 [CBK264457],127.368%
7,Cc1cnc2[nH]c(C(F)(F)F)c(CN3CCN(C)CC3)c2c1 [CBK284765],153.097%
8,COc1cccc(C(NC(=O)c2cc(CN3CCOCC3)c(C)o2)c2ccccc2)c1 (centres unmarked) [CBK286279],120.781%
9,CCN(CC(=O)NCc1cccs1)C(=O)CN1CCCC1c1ccc(C)cc1 (centres unmarked) [CBK297761],146.517%
10,Cc1cc(CNC(=O)C2=CC(=O)CC(C)(C)O2)no1 [CBK153281],87.3339%
11,CCO/C(C)=C/c1sc2ccc3ccccc3c2[n+]1CCCS(=O)(=O)[O-] [CBK260948],100%
12,COc1cccc(Nc2nnc(-c3cc4cc(OC)ccc4oc3=O)s2)c1 [CBK264432],100%
13,O=C(NCCSCc1ccco1)Nc1cccc(Cl)c1 [CBK268277],91.3561%
14,Nc1nc(-c2ccccc2I)n[nH]1 [CBK027413],147.092%
15,c1ccc(CCCN2CCN(Cc3ccccn3)CC2)cc1 [CBK263461G],126.364%
16,Cc1cc(/C=N\NC(=O)c2cc3ccccc3cc2O)c(C)n1-c1ccccc1 [CBK261801],100%
17,COc1ccc(C(=O)CN2CCC3(CC2)CC(=O)c2cc(Br)ccc2O3)cc1 [CBK162265],97.5453%
18,CCOC(=O)CCNC(=O)/C=C/c1ccc(C(C)C)cc1 [CBK149643],122.43%
19,Nc1nc(C2CC(N)C2)cc(N2CCC(Oc3ccccc3F)CC2)n1 (centres unmarked) [CBK306909],129.422%
20,NC(=O)Nc1ccc2c(c1)ncn2C1CCCCC1 [CBK288176],152.039%
21,COc1ccc(/C=C(\C)C(=O)Nc2cccnc2N2CCNCC2)cc1OC [CBK034124T],109.212%
22,Cc1ccc(-c2nc(C3CCCN3C(=O)C3CC3C(=O)O)n3ccccc23)cc1 (centres unmarked) [CBK046559],188.302%
23,CN1CCC(C(=O)Nc2cnc(-c3cccc(OC(F)(F)F)c3)c(-c3cccnc3)n2)CC1 [CBK036882],216.342%
24,CCOC(=O)C1CC1CN1CCN(S(=O)(=O)c2ccc(OCC)c3ncccc23)CC1 (centres unmarked) [CBK062785],117.89%
25,CC(C)Nc1cncc(OCC2CN(C)CCN2C)n1 (centres unmarked) [CBK115602],100%
26,C[C@@H]1C(=O)Nc2ccc(F)cc2N1C(=O)N1CCCC1 [CBK007936],105.292%
27,CCOc1ccc2c(c1)C(=O)c1cc(OCC(=O)O)ccc1-2 [CBK286693],122.836%

# Retrieved by compound from the list above, four records:
row,Compound,% of control remaining
9,CCN(CC(=O)NCc1cccs1)C(=O)CN1CCCC1c1ccc(C)cc1 (centres unmarked) [CBK297761],146.517%
7,Cc1cnc2[nH]c(C(F)(F)F)c(CN3CCN(C)CC3)c2c1 [CBK284765],153.097%
14,Nc1nc(-c2ccccc2I)n[nH]1 [CBK027413],147.092%
19,Nc1nc(C2CC(N)C2)cc(N2CCC(Oc3ccccc3F)CC2)n1 (centres unmarked) [CBK306909],129.422%

# The listing continues.

row,Compound,% of control remaining
1,CCCCNc1nnc(-c2nn(C)cc2Cl)s1 [CBK288021],117.271%
2,Nc1ncc(-c2cccs2)nc1-c1ccc(C(=O)O)cc1 [CBK064133],139.931%
3,Cc1ccc(S(=O)(=O)NC(C)(C)CSc2nnc[nH]2)cc1 [CBK268374],150.882%
4,CC(NC(=O)c1n[nH]c2c1CCC2)c1cccnc1 (centres unmarked) [CBK281488],112.798%
5,Cc1occc1-c1nnc(SCC(=O)Nc2ccccc2)n1C [CBK270308],122.398%
6,CCNC(=O)CN1CCN(C(C(=O)O)c2c[nH]c3ccc(C)cc23)CC1 (centres unmarked) [CBK286694],110.224%
7,COC(=O)CCc1ccc(S(=O)(=O)N2CCCN(Cc3cccc(Cl)c3Cl)CC2)cc1 [CBK062988],112.292%
8,Fc1cc(Br)c(CNCc2ncc[nH]2)c(N2CCCCC2)c1F [CBK304243],16.7953%
9,COc1cc(C(=O)Nc2ccc(N3CCN(C)CC3)cc2)ccc1OCc1ccc(Cl)cc1 [CBK266116],100.887%
10,Cc1nn(C)cc1CNC(=O)C1C2CCC(C2)C1C(=O)O (centres unmarked) [CBK286875],120.148%
11,CCc1nc2c(OCc3ccccc3)cccn2c1N(Cc1ccc(OC)cc1)C(C)=O [CBK147887],122.641%
12,Cn1cc(I)c(C(=O)NNC(=S)Nc2ccc(S(N)(=O)=O)cc2)n1 [CBK267066],189.048%
13,CC(=O)NC(Cc1c[nH]c2ccccc12)/C(C)=N/O (centres unmarked) [CBK022711],120.72%
14,O=C(N/N=C/c1cc2c(cc1Br)OCO2)c1ccc(CN2CCOCC2)cc1 [CBK262721],110.159%
15,O=C(NC1CCCCC1)c1ccc(-n2ccnc2)c(-n2cccc2)c1 [CBK285365],106.327%
16,Nc1c(N(CCO)C(=O)C2CCCC2)c(=O)[nH]c(=O)n1Cc1ccccc1 [CBK297490],133.047%
17,CC(C)CNC(=O)N1CCN(C2CCN(C)CC2)CC1 [CBK155902],137.435%
18,O=P(O)(CCc1ccccc1)CN1CCOCC1 [CBK262305],117.195%
19,CCCC/C=C/c1ccc(Nc2ccc3c(c2)OCCO3)nc1 [CBK037774],174.511%
20,Nc1ncc(-c2ccc(OC(F)(F)F)cc2)c2cccnc12 [CBK067594],108.367%
21,CC1=CC(=O)Nc2ccccc2S1 [CBK028872],94.7029%
22,NCCn1cc(-c2cccc(F)c2)c(C2CCOCC2)n1 [CBK281696],129.002%
23,COc1cccc(Oc2nccnc2-c2ccc3c(c2)OCO3)c1 [CBK106704],123.021%
24,Fc1ccc(-c2[nH]c3ncccc3c2CN2CCOCC2)cc1 [CBK285310],114.447%
25,CC/C(=N\C(N)=O)c1ccccc1 [CBK009865],141.054%
26,CC(C)S(=O)(=O)n1c(=O)n(Cc2ccc(S(C)(=O)=O)cc2)c2ccccc21 [CBK106529],129.707%
